The values below come from PMC6294559.

By UniProt entry, the sequences of proteins in these tests, tags left out.
UniProt Q9C5X9: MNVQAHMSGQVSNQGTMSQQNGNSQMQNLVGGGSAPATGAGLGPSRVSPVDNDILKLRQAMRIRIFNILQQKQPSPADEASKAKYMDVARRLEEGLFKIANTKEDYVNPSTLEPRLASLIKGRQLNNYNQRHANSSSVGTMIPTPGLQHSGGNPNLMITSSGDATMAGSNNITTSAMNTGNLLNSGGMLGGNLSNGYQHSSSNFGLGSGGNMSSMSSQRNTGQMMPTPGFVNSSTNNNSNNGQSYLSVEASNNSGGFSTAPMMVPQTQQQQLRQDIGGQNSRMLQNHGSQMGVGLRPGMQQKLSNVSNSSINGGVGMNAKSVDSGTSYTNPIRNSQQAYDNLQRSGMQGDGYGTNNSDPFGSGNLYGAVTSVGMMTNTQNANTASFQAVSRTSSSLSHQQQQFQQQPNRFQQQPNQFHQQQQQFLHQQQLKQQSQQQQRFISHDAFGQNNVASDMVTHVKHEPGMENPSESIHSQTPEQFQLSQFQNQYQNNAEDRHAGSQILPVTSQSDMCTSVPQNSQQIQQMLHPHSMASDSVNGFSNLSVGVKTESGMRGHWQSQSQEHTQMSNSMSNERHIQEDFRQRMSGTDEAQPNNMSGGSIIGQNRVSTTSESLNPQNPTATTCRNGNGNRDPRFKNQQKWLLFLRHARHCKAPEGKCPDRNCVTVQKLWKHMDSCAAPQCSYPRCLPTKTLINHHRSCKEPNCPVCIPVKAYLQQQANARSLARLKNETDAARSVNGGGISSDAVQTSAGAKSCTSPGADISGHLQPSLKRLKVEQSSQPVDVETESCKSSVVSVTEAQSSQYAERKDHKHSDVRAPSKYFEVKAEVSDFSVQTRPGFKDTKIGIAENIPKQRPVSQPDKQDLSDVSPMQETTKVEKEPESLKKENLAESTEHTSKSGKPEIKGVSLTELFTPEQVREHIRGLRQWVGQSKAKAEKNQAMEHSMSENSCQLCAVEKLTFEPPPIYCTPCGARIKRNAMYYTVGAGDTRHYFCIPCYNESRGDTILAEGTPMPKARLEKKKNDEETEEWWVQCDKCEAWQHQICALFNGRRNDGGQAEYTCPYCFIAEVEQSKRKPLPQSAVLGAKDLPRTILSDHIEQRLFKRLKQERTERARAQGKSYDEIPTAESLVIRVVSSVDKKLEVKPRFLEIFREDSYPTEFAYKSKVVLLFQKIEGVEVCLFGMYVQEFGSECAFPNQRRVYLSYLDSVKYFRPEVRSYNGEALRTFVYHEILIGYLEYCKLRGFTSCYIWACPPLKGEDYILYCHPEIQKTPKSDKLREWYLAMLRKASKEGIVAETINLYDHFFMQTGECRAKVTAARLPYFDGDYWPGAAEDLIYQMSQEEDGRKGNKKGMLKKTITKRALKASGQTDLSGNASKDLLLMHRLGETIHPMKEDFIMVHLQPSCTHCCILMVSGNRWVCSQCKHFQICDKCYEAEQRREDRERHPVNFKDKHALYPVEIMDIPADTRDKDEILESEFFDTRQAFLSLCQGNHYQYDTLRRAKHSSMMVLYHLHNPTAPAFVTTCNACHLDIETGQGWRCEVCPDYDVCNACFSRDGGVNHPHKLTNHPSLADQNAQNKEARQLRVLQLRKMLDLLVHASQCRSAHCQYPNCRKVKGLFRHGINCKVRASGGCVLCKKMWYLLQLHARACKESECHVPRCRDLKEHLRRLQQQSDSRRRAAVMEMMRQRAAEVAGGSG
UniProt P93002: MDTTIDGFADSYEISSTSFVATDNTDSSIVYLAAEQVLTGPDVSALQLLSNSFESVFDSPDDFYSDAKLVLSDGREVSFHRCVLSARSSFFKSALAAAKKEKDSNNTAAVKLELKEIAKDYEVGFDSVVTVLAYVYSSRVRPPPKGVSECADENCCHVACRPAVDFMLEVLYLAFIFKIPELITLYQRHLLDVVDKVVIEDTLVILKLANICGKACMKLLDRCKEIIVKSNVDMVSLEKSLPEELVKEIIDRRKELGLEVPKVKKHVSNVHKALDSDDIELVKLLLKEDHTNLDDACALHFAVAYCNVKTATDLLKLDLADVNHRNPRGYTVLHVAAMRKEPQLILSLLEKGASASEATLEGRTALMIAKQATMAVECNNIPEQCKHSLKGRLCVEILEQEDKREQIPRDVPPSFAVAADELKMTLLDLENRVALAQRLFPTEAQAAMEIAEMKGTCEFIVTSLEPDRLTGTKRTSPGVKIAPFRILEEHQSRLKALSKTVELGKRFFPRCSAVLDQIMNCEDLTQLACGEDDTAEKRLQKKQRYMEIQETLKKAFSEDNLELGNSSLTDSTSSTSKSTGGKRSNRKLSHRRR

This test deals with HAC1:HA fusion protein (Arabidopsis) (UniProt Q9C5X9). As to the kind of experiment: co-IP; total proteins of 4-w-old transgenic Arabidopsis plants treated with DW or INA for 12 h (also after pathogen attack; also in tga2/5/6 and hac1/5 backgrounds); IP with α-HA agarose beads or α-GFP coupled to protein-A agarose, 4°C, 3 h; 50 mM Tris-HCl pH 7.5, 150 mM NaCl, 10 mM MgCl2, 5 mM EDTA, 10% glycerol; immunoblot. A general note: Immunoblotting shows a protein as a band on a membrane.

Results are given in words; binding and its absence hold for the method and conditions named. In cells and extracts the contact can be indirect. Some binding calls cover weakened binding; strength is not graded here.

As to NPR1:GFP (from UniProt P93002 1-593), the binding result was “binds”.
